Values of other authors as cited in patent publication US20010006649A1, “STABLE ORAL PHARMACEUTICAL DOSAGE FORMS” (priority 1997, published 2001).
For at least one compound, name, drawing or mass did not settle the structure.

Settings: omeprazole solution, below pH 7.8

COc1ccc2[nH]c([S+]([O-])Cc3ncc(C)c(OC)c3C)nc2c1 (stereo not shown) [omeprazole, 2-[2-(3,5-dimethyl-4-methoxy)-pyridylmethylsulfinyl]-(5-methoxy)-benzimidazole]
decomposition: very fast
